The record followed here is patent US20070232527A1, “Medicaments and methods combining a HCV protease inhibitor and an AKR competitor” (priority 2005, published 2007).

In series [1] the test system is cytosolic enzymes that convert Formula Ia to Formula Ia′. Description: in vitro. The settings on record: human.
For series [2] the test system is unchanged. Description: Inhibition of metabolism of 14C-Formula Ia to Formula Ia′ in human liver cytosol. The note with it: pH 7.4.
Where [3] appears, read: pH 7.4, % Inhibition on Metabolite Formation of Compound Formula Ia.

For orientation: inhibition means the percentage by which the read-out fell short of the control.

With `COc1ccc2cc([C@H](C)C(=O)O)ccc2c1` [Naproxen], in series [1] (setting [3]), the inhibition at 120 min, 100 µM is 44.7% and the inhibition at 120 min, 100 μM amounted to 44.7%. The inhibition at 2 h, 100 µM in series [1] (pH 7.4, % of Inhibition on Metabolite Formation of Compound Formula Ia) worked out at 44.7%.
With `CN1C(=O)CN=C(c2ccccc2)c2cc(Cl)ccc21` [Diazepam], the inhibition at 120 min, 100 µM in series [2] was determined as 75%.
